Screening data, single-dose tests

The values are deposited in ChEMBL (CHEMBL3988442, “University of Dundee, Small-Polar-MMV Screening Library” (2021)).

Mtb cholesterol medium: 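Phenotypic screen: M. tuberculosis growth, cholesterol and DPPC medium, 4 days; the read-out is not stated. Tested at 50 µM. Direction is inferred from retests: higher values go with more growth inhibition. Size under these conditions: about 69,000 compounds, about 370 of them at 50% or above in at least one test.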
Mtb glucose medium: 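Phenotypic screen: M. tuberculosis growth, glucose 7H9 medium, 3 days; the read-out is not stated. Concentration: 50 µM. Higher reads as more growth inhibition (inferred: compounds with an IC50 in retests scored well above the rest). Of about 69,000 compounds tested this way, about 760 (1.1%) reached 50% or more in at least one test.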

Results are given as percent effect.
How 0% and 100% were set is not recorded. Most values in the screen are low, and negative values occur.
The compounds are a random part of those screened.
Two or more numbers in one place are separate tests of the same structure; such repeats can differ widely.

Result for Cc1csc(CNC(=O)NCC(O)c2ccc(F)cc2F)n1 (centres undefined) was Mtb cholesterol medium: -21.03%; Mtb glucose medium: -15.63% & -44.17%. For Cc1cc(-c2cnc(NCc3ccncc3)nc2C(C)C)on1 the result was Mtb cholesterol medium: 18.3%; Mtb glucose medium: 54.58%. Result for O=C(O)C(F)(F)F.O=C(O)C(F)(F)F.c1cncc(N2CCOCC3(CCCN(Cc4cccs4)C3)C2)c1 (centres undefined) was Mtb cholesterol medium: -10.68%; Mtb glucose medium: -20.81%. c1ccc2nc(N3CCOC(Cn4cccn4)C3)cnc2c1 (centres undefined) gave Mtb cholesterol medium: -2.129%; Mtb glucose medium: 30.94%. With CN(Cc1nc(CC2CC2)no1)CC1Cc2ccccc2O1 (centres undefined) the screen gave Mtb cholesterol medium: 53.98%; Mtb glucose medium: 19.97%.

Result for N#Cc1cccc(S(=O)(=O)NC2CCN(Cc3ccccc3)C2=O)c1 (centres undefined) was Mtb cholesterol medium: 11.46%; Mtb glucose medium: 2.844%. For CC(C)C(NC(=O)c1ccc(=O)[nH]c1)c1nnc2n1CCNCC2 (centres undefined) the result was Mtb cholesterol medium: 11.14%; Mtb glucose medium: 14%. Result for O=C(NCCn1ccnc1-c1cc2n(n1)CCNC2)c1ccncc1 was Mtb cholesterol medium: -4.189%; Mtb glucose medium: -8.436% & -0.8819%. With [H][C@]12CC[C@](O)(c3cccc(OC)c3)[C@@]1([H])CN(C(=O)c1cn(C)nc1C)C2 the screen gave Mtb cholesterol medium: -20.59% & -3.949%; Mtb glucose medium: -23.32%. For CC(C)(C)c1nc(CN(CCO)Cc2cc(Br)ccc2F)no1 the result was Mtb cholesterol medium: 2.282%; Mtb glucose medium: 2.717% & 23.21%.

Cc1c(O)oc(-c2ccc(Br)cc2)nc1=O gave Mtb cholesterol medium: -19.1%; Mtb glucose medium: -46.7%. Result for O=C(Nc1ccc(Cl)cc1)c1nn(C2CCS(=O)(=O)C2)c2c1CCCC2 (centres undefined) was Mtb cholesterol medium: -2.308%; Mtb glucose medium: 9.568%. For Cc1nc(CCN(C)C(=O)CCNC(=O)c2ccccc2F)no1 the result was Mtb cholesterol medium: -8.114%; Mtb glucose medium: -4.665% & -14.1%. Result for CN1CCC(NCC2(O)CCCN(Cc3ccccc3F)C2=O)CC1 (centres undefined) was Mtb cholesterol medium: -18.45%; Mtb glucose medium: 0.1191%. Cc1ccccc1-n1cc(-c2ccnc(N[C@@H](CO)C(C)C)n2)cn1 gave Mtb cholesterol medium: 23.72%; Mtb glucose medium: 13.98%.

CC(=O)N1N=C(c2ccccc2)OC1C(=O)NCCC1=CCCCC1 (centres undefined) read Mtb cholesterol medium: -22.46%; Mtb glucose medium: -24.21%. O=C(O)C(F)(F)F.[H][C@]12C[C@H](C(=O)NC)N(S(C)(=O)=O)[C@@]1([H])CN(C(=O)c1ccccn1)C2 read Mtb cholesterol medium: -11%; Mtb glucose medium: -9.614%. Cc1ncnc2c1CCN(C(=O)c1cccc(F)c1)CC2 gave Mtb cholesterol medium: 9.881%; Mtb glucose medium: -9.573% & -2.188%. Result for CCc1nc(C2CCCN2C(=O)c2c[nH]c(C)n2)no1 (centres undefined) was Mtb cholesterol medium: -30.31%; Mtb glucose medium: -16.93%. Result for CCCC1CCCN(Cc2csc(-c3cnn(C)c3)n2)CC1 (centres undefined) was Mtb cholesterol medium: 3.638%; Mtb glucose medium: 39.46%.

Result for [H][C@@]12COC[C@]1(COCc1cccnc1)CN(C(=O)c1ccc(C)nc1)C2 was Mtb cholesterol medium: 2.667% & -15.52%; Mtb glucose medium: -6.513% & -3.56%. For Cn1cc(N2Cc3nc(N4CCOCC4)ncc3C2=O)cn1 the result was Mtb cholesterol medium: -19.02%; Mtb glucose medium: -25.95%. Result for O=C(c1ccn(COc2ccc(F)cc2)n1)N1CCCC1 was Mtb cholesterol medium: 34.62%; Mtb glucose medium: 29.82%. With Cc1ccc2c(ccn2CCC(=O)O)c1 the screen gave Mtb cholesterol medium: 8.958%; Mtb glucose medium: 17.43%. With CC(C(=O)NCC1CCCCC1)S(=O)(=O)Cc1csc(-c2cccs2)n1 (centres undefined) the screen gave Mtb cholesterol medium: -2.174%; Mtb glucose medium: -9.402% & 8.029%.

With O=C(c1ccno1)N1CCC2(CC1)C(=O)Nc1ccccc12 the screen gave Mtb cholesterol medium: -7.487% & -9.411%; Mtb glucose medium: -14.37% & -3.2%. With CC(C)CN1CC(O)CN(S(=O)(=O)c2ccccc2)CC1=O (centres undefined) the screen gave Mtb cholesterol medium: -7.437%; Mtb glucose medium: -6.718%. Result for Cc1nnc(SCCCNC(=O)c2ccc3c(c2)OCO3)s1 was Mtb cholesterol medium: 18.79%; Mtb glucose medium: -15.16% & 6.137%. CSc1ncccc1C(=O)NC(C)c1cccc(N2CCOC2=O)c1 (centres undefined) read Mtb cholesterol medium: -5.018%; Mtb glucose medium: -2.338% & -7.678%. CCN(C(C)=O)C1CCN(c2nccc(CCC(F)(F)F)n2)C1 (centres undefined) read Mtb cholesterol medium: 8.454%; Mtb glucose medium: 10.02%.

O=C(CCc1cccs1)N1CCCC(N2CCNC2=O)C1 (centres undefined) gave Mtb cholesterol medium: -5.499%; Mtb glucose medium: 8.584%. CS(=O)(=O)c1ccc(OCCNCc2c(F)cccc2F)cc1 read Mtb cholesterol medium: -3.387% & 6.041%; Mtb glucose medium: -0.05701%. Result for O=C(COCCc1ccccc1)N1CCCC(n2cccn2)C1 (centres undefined) was Mtb cholesterol medium: -1.516%; Mtb glucose medium: -12.97%. For O=C1CCNC(=O)N1CC(=O)N1CCC1c1ccc(F)cc1 (centres undefined) the result was Mtb cholesterol medium: -0.9568% & -4.575%; Mtb glucose medium: 4.094%. CCCn1ncc(C(=O)NC2CCN(C3CCOCC3)CC2)c1C read Mtb cholesterol medium: -12.75%; Mtb glucose medium: 20.85%.

COc1ccc(CNC(=O)Cc2csc(C(C)=O)c2)cc1 read Mtb cholesterol medium: 8.498%; Mtb glucose medium: 19.41%. O=C(NCCc1ccco1)Nc1cc(C(F)(F)F)c[nH]c1=O read Mtb cholesterol medium: 16.64%; Mtb glucose medium: 12.16%. O=C1CC2(CCN(Cc3ccsc3)C2)CN1c1ccc2c(c1)OCO2 (centres undefined) read Mtb cholesterol medium: -8.157%; Mtb glucose medium: -6.814%. For COc1ccc(OC)c(CN(C)c2ncc(S(N)(=O)=O)s2)c1 the result was Mtb cholesterol medium: -13.81%; Mtb glucose medium: 25.55%. FC(F)(F)c1ccc(-c2cc(NC3CCNCC3)nc3[nH]ccc23)nc1 gave Mtb cholesterol medium: -18.71%; Mtb glucose medium: -22.48%.

With COc1cccc(S(=O)(=O)CCNCCn2cccn2)c1 the screen gave Mtb cholesterol medium: 31.54%; Mtb glucose medium: 7.674%.

The first 2 entries again:

structure,Mtb cholesterol medium,Mtb glucose medium
Cc1csc(CNC(=O)NCC(O)c2ccc(F)cc2F)n1 (centres undefined),-21.03,-15.63 & -44.17
Cc1cc(-c2cnc(NCc3ccncc3)nc2C(C)C)on1,18.3,54.58